For 2 molecules, binding results are on record in paper PMC10482677.

No constants are given. Whether binding was seen depends on the method and setting. In cells and extracts the contact can be indirect. Some entries that bind do so weakly or less than the wild type. Tags and fused reporters may be left off the sequences shown.

The target in test [1] is T1, 3×HA-tagged DIESL (DGAT1/2-independent enzyme synthesizing storage lipids), wild type, in HAP1 cells (human) (UniProt Q96MH6).
T1 sequence (chain, N-glycan on Asn5): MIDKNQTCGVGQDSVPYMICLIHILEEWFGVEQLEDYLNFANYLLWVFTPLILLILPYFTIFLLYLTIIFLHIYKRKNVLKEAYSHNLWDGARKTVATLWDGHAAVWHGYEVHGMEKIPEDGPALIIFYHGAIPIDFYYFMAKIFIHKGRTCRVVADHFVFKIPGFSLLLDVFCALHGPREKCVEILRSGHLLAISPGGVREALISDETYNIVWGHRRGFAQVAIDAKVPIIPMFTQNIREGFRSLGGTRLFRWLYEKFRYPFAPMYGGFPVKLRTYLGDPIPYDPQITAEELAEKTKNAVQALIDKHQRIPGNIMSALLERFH
The test can be described thus: co-IP; lysate of ∆DIESL HAP1 cells reconstituted with 3×HA-DIESL on anti-HA magnetic beads overnight at 4 °C; IP buffer 25 mM HEPES pH 7.0, 150 mM NaCl, 1% Tween-20; immunoblot for TMX1. For orientation: In western blotting, separated proteins are transferred to a membrane and probed.

In test [2] the target is T1, 3×HA-tagged DIESL (DGAT1/2-independent enzyme synthesizing storage lipids), wild type, in HAP1 cells (human). As to the kind of experiment: cross-linking; intact cells (HAP1 ∆DIESL or ∆TMX1∆DIESL reconstituted with 3×HA-DIESL; HeLa expressing 3×HA-DIESL) in 1% paraformaldehyde, 20 min, room temperature, quenched with 0.2 M glycine; RIPA lysis, SDS–PAGE, immunoblot for HA and TMX1.

Test [3] addresses T2, 3×HA-tagged DIESL, wild type, in HeLa cells (human) (UniProt Q96MH6).
T2 sequence: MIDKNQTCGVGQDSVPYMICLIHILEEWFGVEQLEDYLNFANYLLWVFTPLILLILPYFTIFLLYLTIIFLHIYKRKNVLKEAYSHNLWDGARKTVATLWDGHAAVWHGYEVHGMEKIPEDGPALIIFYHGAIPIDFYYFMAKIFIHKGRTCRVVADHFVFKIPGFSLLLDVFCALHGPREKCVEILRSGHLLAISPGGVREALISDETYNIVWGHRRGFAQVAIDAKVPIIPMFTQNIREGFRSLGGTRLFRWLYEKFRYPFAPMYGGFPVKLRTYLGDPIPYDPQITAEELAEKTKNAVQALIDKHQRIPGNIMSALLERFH
Described as above.

B1: Transmembrane thioredoxin 1 (TMX1), endogenous in HAP1 cells (protein, UniProt Q9H3N1 27-280)
chain: RRSNVRVITDENWRELLEGDWMIEFYAPWCPACQNLQPEWESFAEWGEDLEVNIAKVDVTEQPGLSGRFIITALPTIYHCKDGEFRRYQGPRTKKDFINFISDKEWKSIEPVSSWFGPGSVLMSSMSALFQLSMWIRTCHNYFIEDLGLPVWGSYTVFALATLFSGLLLGLCMIFVADCLCPSKRRRPQPYPYPSKKLLSESAQPLKKVEEEQEADEEDVSEEEAESKEGTNKDFPQNAIRQRSLGPSLATDKS
Consider B1, for which the binding entry in test [1] and in test [2] was “binds” in each case.

B2: Transmembrane thioredoxin 1 (TMX1), endogenous in HeLa cells (protein, UniProt Q9H3N1 27-280)
chain: RRSNVRVITDENWRELLEGDWMIEFYAPWCPACQNLQPEWESFAEWGEDLEVNIAKVDVTEQPGLSGRFIITALPTIYHCKDGEFRRYQGPRTKKDFINFISDKEWKSIEPVSSWFGPGSVLMSSMSALFQLSMWIRTCHNYFIEDLGLPVWGSYTVFALATLFSGLLLGLCMIFVADCLCPSKRRRPQPYPYPSKKLLSESAQPLKKVEEEQEADEEDVSEEEAESKEGTNKDFPQNAIRQRSLGPSLATDKS
As for B2, the binding result in test [3] is recorded as “binds”.
